No constants are given. Whether binding was seen depends on the method and setting. In cells and extracts the contact can be indirect. These calls come from enrichment with a bait or labelling near it, and not all partners need be listed. Where a sequence is shown, tags or fusion partners need not be part of it.
B1: TRMT112 (protein, UniProt Q9UI30 1-125)
chain: MKLLTHNLLSSHVRGVGSRGFPLRLQATEVRICPVEFNPNFVARMIPKVEWSAFLEAADNLRLIQVPKGPVEGYEENEEFLRTMHHLLLEVEVIEGTLQCPESGRMFPISRGIPNMLLSEEETES

By UniProt entry, the sequences of proteins in these tests, tags left out.
UniProt Q9Y265: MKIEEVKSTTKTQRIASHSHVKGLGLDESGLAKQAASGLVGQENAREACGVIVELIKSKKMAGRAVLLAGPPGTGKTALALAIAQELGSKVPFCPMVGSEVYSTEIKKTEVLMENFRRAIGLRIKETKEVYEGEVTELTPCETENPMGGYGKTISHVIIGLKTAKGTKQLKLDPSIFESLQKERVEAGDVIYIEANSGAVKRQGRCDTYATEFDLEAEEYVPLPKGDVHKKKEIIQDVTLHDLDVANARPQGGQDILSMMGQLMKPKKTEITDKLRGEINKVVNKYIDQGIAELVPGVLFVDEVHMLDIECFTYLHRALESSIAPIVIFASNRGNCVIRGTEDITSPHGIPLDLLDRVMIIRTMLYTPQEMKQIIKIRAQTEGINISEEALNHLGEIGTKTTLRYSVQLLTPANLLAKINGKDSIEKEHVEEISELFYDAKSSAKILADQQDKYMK

What follows are molecules tested against T1, Halo-tagged WBSCR22/metastasis-related methyltransferase 1 (Merm1) (human) (UniProt O43709) (assay: affinity purification with mass spectrometry; Halo-Merm1 expressed in HEK293T; DNase-treated lysate (150 mM NaCl, 0.5% Triton X-100, pH 7.4) bound to Halo-link resin overnight at 4 °C, released with TEV protease, SDS-PAGE, LC-MS/MS; Halo-tag alone as control).
T1 sequence: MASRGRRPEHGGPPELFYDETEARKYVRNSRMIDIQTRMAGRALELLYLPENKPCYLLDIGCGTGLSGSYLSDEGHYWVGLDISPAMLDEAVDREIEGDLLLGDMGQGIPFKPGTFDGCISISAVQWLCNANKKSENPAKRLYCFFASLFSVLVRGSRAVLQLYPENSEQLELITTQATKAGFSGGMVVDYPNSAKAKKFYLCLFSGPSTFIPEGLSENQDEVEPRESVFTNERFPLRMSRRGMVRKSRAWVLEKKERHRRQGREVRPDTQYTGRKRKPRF

binding, binds:
RUVBL1 (from UniProt Q9Y265 1-456)
ubiquitin (human (endogenous in HEK293T))
B1

Reference: publication PMC3979408
